Experimental data from PubChem BioAssay (Tox21).
This list was built around the results that the source calls inconclusive (neither active nor inactive); the mix of calls is not that of the screen. Where the call is inconclusive, the potency comes from a doubtful curve fit. Active and inactive are the calls of the source. Unless noted, the call rests on the fitted dose curve; in most records, active means well fitted activation curve with a large enough effect in the repeat runs; inconclusive means weak or mixed curves, or effect the other way; inactive means no such curve, though single readings can be large or run the other way.

Sequences of proteins named here, by UniProt entry; tags and fusion partners are left off. A change or cut given only in a name is not applied to a line headed by its entry.
UniProt P19793: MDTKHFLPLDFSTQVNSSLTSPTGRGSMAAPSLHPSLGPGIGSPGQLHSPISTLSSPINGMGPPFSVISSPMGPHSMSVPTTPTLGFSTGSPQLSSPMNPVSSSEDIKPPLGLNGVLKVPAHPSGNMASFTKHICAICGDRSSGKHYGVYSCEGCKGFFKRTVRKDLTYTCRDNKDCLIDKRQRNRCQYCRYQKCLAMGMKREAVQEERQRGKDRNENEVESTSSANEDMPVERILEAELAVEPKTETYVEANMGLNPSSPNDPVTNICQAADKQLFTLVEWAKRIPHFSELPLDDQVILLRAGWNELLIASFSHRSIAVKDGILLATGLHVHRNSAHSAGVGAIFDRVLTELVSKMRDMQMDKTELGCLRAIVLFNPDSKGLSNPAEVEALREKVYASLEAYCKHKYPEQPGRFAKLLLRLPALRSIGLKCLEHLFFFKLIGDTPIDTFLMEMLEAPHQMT

Biological target: Retinoic acid receptor RXR-alpha (Homo sapiens) (UniProt P19793)
Test: qHTS assay to identify small molecule agonists of the RXR signaling pathway (AID 1159527; calls by dose curve; further: nearly all actives have a fitted effect of over 35% in size)
Conditions: HEK293T RXRa-UAS-bla, beta-lactamase ratio, 16 h; activation: at 76.8 µM (top of the series) unless noted
In short: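 Agonist-mode beta-lactamase reporter assay: HEK 293T RXR-alpha-UAS-bla cells treated 16 hr at 37 C with compounds, 9-cis retinoic acid as positive control. LiveBLAzer FRET substrate, 405 nm excitation, 460/530 nm emission.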
On the % scale 0 is the no-effect control and ±100 the full control effect; potency means the concentration at half of the fitted maximal effect.

SMILES	activation	Potency
C#CC(C)N(C)C(=O)Nc1ccc(Cl)cc1 (configuration not stated)	inactive: 19.7%	–
CC/C(=C\C(=N/O)C(N)=O)C(C)[N+](=O)[O-] (configuration not stated)	–	inconclusive: 54.9 µM [inhibitor]
Nc1nc(CC(=O)O)cs1	–	inconclusive: 21.9 µM [rising, single point]
Nc1c(CC(=O)O)cccc1C(=O)c1ccc(Br)cc1	–	inconclusive: 7.56 µM [rising, full curve]
O=C(O)c1ccccc1Nc1cc(Cl)ccc1C(=O)O	inconclusive: -30.3% [at 15.8 µM]	–
CCC(=O)c1ccc(O)cc1	inactive: -1.27% [at 35.3 µM]	–
CC(=O)O[C@H]1C[C@@H]2CC[C@@]1(C)C2(C)C	inactive: 11.7%	–
CCCCCC/C=C/C=O	inactive: -0.733%	–
[O]=[Bi]	inactive: -1.06% [at 6.98 µM]	–
CC(C)(C)c1ccc(OCC2CO2)cc1 (configuration not stated)	inactive: -18.6%	–
Nc1cccc(C(F)(F)F)c1	inconclusive: 18%	–
CCCCCOc1ccc(C2SC(=O)NC2=O)cc1OCC (configuration not stated)	–	active: 5.35 µM
Cc1ccncc1	–	inconclusive: 20.2 µM [inhibitor] and inactive
CC(C)(C)c1cc(CCC(=O)NN)cc(C(C)(C)C)c1O	inactive: -6.18%	–
Oc1ccc2c(c1)OC[C@@H](N1CCC(O)(c3ccc(F)cc3)CC1)[C@H]2O	–	inconclusive: 0.379 µM [inhibitor, full curve]
CN1CCN(c2c(F)cc3c(=O)c(C(=O)O)cn(CCF)c3c2F)CC1	inactive: -9.91% [at 35.3 µM]	–
c1ccc(SCCSc2ccccc2)cc1	inconclusive: -30.8%	–
Clc1ccc(Cn2c(CN3CCCC3)nc3ccccc32)cc1	inconclusive: -30.9% [at 35.3 µM]	–
Cc1ccccc1C#N	inactive: 2.64%	–
CC(C)=CCCC(C)CCOC=O (configuration not stated)	–	inconclusive: 19.5 µM [activator, partial curve]

SMILES	activation	Potency
CCOc1ccc2c(c1)C(C)CC(C)(C)N2 (configuration not stated)	inconclusive: 11%	–
Nc1ccc(C(=O)Oc2ccccc2)c(O)c1	–	inconclusive: 1.51 µM [inhibitor, partial curve, poor fit]
N#CCC(=O)NN	inactive: 10.5% [at 35.3 µM]	–
COc1c(Cl)ccc(Cl)c1C(=O)O	–	inconclusive: 54.9 µM [activator, partial curve, poor fit]
COC(=O)/C=C/C(C)=C\C=C\C(C)=C\C=C\C=C(C)\C=C\C=C(C)\C=C\C(=O)O	–	inconclusive: 34.7 µM [activator, partial curve]
CCOC(=O)/C=C/c1ccccc1	inactive: 0.725%	–
O=C(Nc1ccc2c(c1)Cc1ccccc1-2)C(F)(F)F	inconclusive: -25.4%	–
O=c1c2ccccc2oc2ccccc12	inconclusive: 10.1%	–
CCOC(=O)NNc1nncc2ccccc12	inconclusive: 6.52%	–
CCCCCOC(=O)CCC	inactive: 5.44%	–
Cc1ccc(C(=O)C(=O)O)cc1C	inactive: 1.43% [at 35.3 µM]	–
CC(C)C[C@H](NC(=O)[C@H](Cc1ccccc1)NC(=O)c1cnccn1)B(O)O	–	inconclusive: 0.0268 µM [rising, full curve]
Cc1cc(=O)oc2cc(O[C@@H]3SC[C@@H](O)[C@H](O)[C@H]3O)ccc12	inactive: -9.8% [at 35.3 µM]	–
Nc1c[n+](N2CCOCC2)no1	inactive: 5.54% [at 35.3 µM]	–
COc1cc(Cl)ccc1Cl	inactive: -2.15%	–
CCC(C)(C)C1CCC(O)CC1 (configuration not stated)	inconclusive: 18.6%	–
C=C(C)C(=O)OCCC(C)OC(=O)C(=C)C (configuration not stated)	inconclusive: 6.87%	–
CC(C)COC(=O)/C=C/c1ccccc1	inactive: 0.121%	–
O=C(OCCc1ccccc1)c1ccccc1	inconclusive: -14.5%	–

Test system: not listed separately
Test: qHTS assay to identify small molecule agonists of the retinoic acid receptor (RAR) signaling pathway (AID 1159553)
Conditions: C3RL4 RARE luciferase reporter, agonist, 6 h; activation: at 73.3 µM (top of the series) unless noted
In short: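 Luminescence was measured 30 min after luciferase reagent addition at room temperature. Before that, C3RL4 reporter cells (1,000 per well, plated overnight) were treated with compound for 6 hr at 37 C and 5% CO2.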

SMILES	Potency	activation
C#CC(C)N(C)C(=O)Nc1ccc(Cl)cc1 (configuration not stated)	active: 38.5 µM	–
CC/C(=C\C(=N/O)C(N)=O)C(C)[N+](=O)[O-] (configuration not stated)	inconclusive: 68.6 µM [inhibitor, single point]	–
Nc1nc(CC(=O)O)cs1	–	inconclusive: 0.721% [phenotype inactive] [at 94.8 µM]
Nc1c(CC(=O)O)cccc1C(=O)c1ccc(Br)cc1	–	inactive: 0.209%
O=C(O)c1ccccc1Nc1cc(Cl)ccc1C(=O)O	inconclusive: 6.51 µM [activator, partial curve, poor fit]	–
CCC(=O)c1ccc(O)cc1	–	inactive: 0.352%
CC(=O)O[C@H]1C[C@@H]2CC[C@@]1(C)C2(C)C	–	inactive: 2.07%
CCCCCC/C=C/C=O	–	inactive: 0.249%
[O]=[Bi]	inconclusive: 4.2 µM [inhibitor, single point]	–
CC(C)(C)c1ccc(OCC2CO2)cc1 (configuration not stated)	active: 12.4 µM	–
Nc1cccc(C(F)(F)F)c1	inactive	–
CCCCCOc1ccc(C2SC(=O)NC2=O)cc1OCC (configuration not stated)	active: 21.1 µM	–
Cc1ccncc1	inactive	–
CC(C)(C)c1cc(CCC(=O)NN)cc(C(C)(C)C)c1O	–	inconclusive: -2.79% [phenotype inactive]
Oc1ccc2c(c1)OC[C@@H](N1CCC(O)(c3ccc(F)cc3)CC1)[C@H]2O	active: 0.531 µM	–
CN1CCN(c2c(F)cc3c(=O)c(C(=O)O)cn(CCF)c3c2F)CC1	–	inactive: -1.49%
c1ccc(SCCSc2ccccc2)cc1	active: 6.06 µM	–
Cc1ccccc1C#N	–	inactive: -0.304%
CC(C)=CCCC(C)CCOC=O (configuration not stated)	–	inconclusive: 4.26% [phenotype inactive]

3 entries already listed, ordered by SMILES length, low to high.
SMILES	Potency	activation
Cc1ccncc1	inactive	–
CCC(=O)c1ccc(O)cc1	–	inactive: 0.352%
CCCCCOc1ccc(C2SC(=O)NC2=O)cc1OCC (configuration not stated)	active: 21.1 µM	–

(listing goes on)

SMILES	Potency	activation
CCOc1ccc2c(c1)C(C)CC(C)(C)N2 (configuration not stated)	active: 54.5 µM	–
Nc1ccc(C(=O)Oc2ccccc2)c(O)c1	active: 3.35 µM	–
N#CCC(=O)NN	–	inactive: -1.4%
COc1c(Cl)ccc(Cl)c1C(=O)O	inactive	–
COC(=O)/C=C/C(C)=C\C=C\C(C)=C\C=C\C=C(C)\C=C\C=C(C)\C=C\C(=O)O	active: 61.1 µM	–
CCOC(=O)/C=C/c1ccccc1	–	inconclusive: 5.25% [phenotype inactive]
O=C(Nc1ccc2c(c1)Cc1ccccc1-2)C(F)(F)F	active: 6.86 µM	–
O=c1c2ccccc2oc2ccccc12	active: 27.3 µM	–
CCOC(=O)NNc1nncc2ccccc12	inconclusive: 77 µM [activator, partial curve, poor fit]	–
CCCCCOC(=O)CCC	–	inconclusive: -0.598% [phenotype inactive]
Cc1ccc(C(=O)C(=O)O)cc1C	–	inactive: 2.85%
CC(C)C[C@H](NC(=O)[C@H](Cc1ccccc1)NC(=O)c1cnccn1)B(O)O	active: 0.0094 µM	–
Cc1cc(=O)oc2cc(O[C@@H]3SC[C@@H](O)[C@H](O)[C@H]3O)ccc12	–	inactive: 2.85%
Nc1c[n+](N2CCOCC2)no1	–	inactive: 0.953%
COc1cc(Cl)ccc1Cl	–	inactive: 0.783% [at 94.8 µM]
CCC(C)(C)C1CCC(O)CC1 (configuration not stated)	–	inactive: -3.21%
C=C(C)C(=O)OCCC(C)OC(=O)C(=C)C (configuration not stated)	–	inactive: -0.807%
CC(C)COC(=O)/C=C/c1ccccc1	active: 30.6 µM	–
O=C(OCCc1ccccc1)c1ccccc1	active: 0.386 µM	–
